Values quoted from earlier work, collected in US5229412A, “Method for relieving anxiety using 5-hydroxytryptamine-1A-receptor-binding compounds” (The Board of Trustees of the Leland Stanford Junior …, priority 1988, dated 1993).

Tested on: 5-HT1A receptors
Details: background statement; cited from earlier work

CC[C@@H](CO)NC(=O)[C@@H]1C=C2c3cccc4c3c(cn4C)C[C@H]2N(C)C1 [methylsergide]
inhibition of [^3 H]-8-OH-DPAT binding to 5-HT1A receptors (in words): potent inhibitors
